Measurements from “University of Dundee, Small-Polar-MMV Screening Library” (2021), ChEMBL document CHEMBL3988442.

The filed quantity is “Percent Effect” (%). The controls that fix the scale are not given in the record; negative values are as filed. The compounds are a random part of those screened.

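Whole-cell assay for inhibitors of Mycobacterium tuberculosis growth, labelled Cornell in the record; the read-out is not stated. The concentration is filed as 10 mM, unlikely as a test dose, so the dose is not known. The record gives no direction; compounds strong in two other growth screens of this library score well above the rest, so higher reads as stronger inhibition. About 53,000 compounds were tested under these conditions; 1.7% (about 900) showed 50% or more at least once.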

| # | Compound | effect |
|---|---|---|
| 1 | `CCN(CC)Cc1ccccc1NC(=O)N(C)Cc1ccccc1O` | -3.784 |
| 2 | `Fc1cnc(N2CCC3(CC2)CN(Cc2ccccn2)CCO3)nc1.O=C(O)C(F)(F)F.O=C(O)C(F)(F)F` | 20.22 |
| 3 | `Cc1cc(C(F)(F)F)nc(CCNc2nc(C)nc3c2cnn3C)n1` | -35.41 |
| 4 | `CNC(=O)NC(=O)CN(Cc1ccc(C#N)cc1)Cc1cccc(F)c1` | 4.321 |
| 5 | `CCC(CC)(CNC(=O)OC(C)(C)C)NC(=O)c1cnccn1` | -2.736 |
| 6 | `CCn1cnnc1C1CCN(C(=O)CC(C)n2cccc2)CC1` (stereo not shown) | 1.787 |
| 7 | `C=C(C)CN(CC)C(=O)c1cc(C)ccc1NS(C)(=O)=O` | 8.45 |
| 8 | `CN1CCN(Cc2ccc(-c3ccc(-c4ccn[nH]4)cc3)nc2)CC1` | 18.26 |
| 9 | `COc1ccc(C)cc1CN(C)CC(=O)NC1(C)CCS(=O)(=O)C1` (stereo not shown) | 9.97 |
| 10 | `CSCCc1c(-c2ccccc2)ncn1CC(C)(C)N1CCOCC1` | -4.383 |
| 11 | `COCC(=O)N1CCCCC1c1ccnc(Nc2cnccn2)n1` (stereo not shown) | -3.247 |
| 12 | `CC(C)NC(=O)C1(Cc2ccccc2-c2ccccc2)CCCNC1` (stereo not shown) | -4.67 |
| 13 | `O=C(O)C(F)(F)F.[H][C@]12CCCN(Cc3nccs3)[C@@]1([H])CN(C(=O)c1ccco1)C2` | 16.78 |
| 14 | `CCn1cc(CN(C)Cc2cnn(-c3ccc(F)cc3)c2)cn1` | -4.636 |
| 15 | `Cn1nccc1C(=O)N1CCOC(Cc2ccc(Cl)cc2)C1` (stereo not shown) | -17.6 |
| 16 | `Cn1nccc1CCC(=O)N1CCC(c2cnccn2)CC1` | -75.7 |
| 17 | `CC(=O)c1cccc(NC(=O)CCn2nc(-c3cccs3)oc2=O)c1` | -9.995 |
| 18 | `Cc1nn(-c2ncccn2)c2c1C(c1cnn(C)c1)SCC(=O)N2` (stereo not shown) | 10.13 |
| 19 | `[H][C@]12CCN(c3ncccn3)CC[C@@]1([H])S(=O)(=O)N(CCOC)C2` | 22.35 |
| 20 | `[H][C@@]12CCN(S(C)(=O)=O)[C@]1([H])CC[C@H](C(=O)NCc1ccco1)O2` | 3.915 |
| 21 | `COc1ccccc1N1CCC(CNCc2cccc(OC)c2OC)C1` (stereo not shown) | 5.371 |
| 22 | `CC(C)C1CCCN1CC(=O)NCc1ccc(OCC(N)=O)cc1` (stereo not shown) | -20.59 |
| 23 | `CCCn1ccnc1CN1CCCC(O)(CN(C)C)CC1` (stereo not shown) | -9.735 |
| 24 | `Cn1nc(C(=O)N2CCCC2)c2c1CN(CC1CCOCC1)C2` | 0.6889 |
| 25 | `Cc1nn(C)c(C)c1C1SCC(=O)Nc2c1c(O)nn2C(C)C` (stereo not shown) | 16.91 |

Once more, the final 2:

Compound,effect
Cn1nc(C(=O)N2CCCC2)c2c1CN(CC1CCOCC1)C2,0.6889
Cc1nn(C)c(C)c1C1SCC(=O)Nc2c1c(O)nn2C(C)C (stereo not shown),16.91